Measurements published in PubChem BioAssay AID493014 (National Center for Advancing Translational Sciences (NCATS), 2011).
The whole screen tested about 340,000 compounds, of which about 170 (0.05%) were called active. The inconclusive results got no clear call from the source; some entries with a clear call stand among them for comparison. Calls follow the shape of the dose curve; as a rule, active = well fitted inhibition curve with a large enough effect in the signal ratio, with a control signal flat (not every such curve was filed as active); inconclusive = small, poorly fitted or top-dose-only effect, or effect the other way, or a change in a side signal; inactive = flat fitted curve, though single readings scatter; the % refers to the signal ratio. Potencies of inconclusive entries are doubtful fits and often do not repeat.

Experiment: qHTS Assay to Find Inhibitors of Chronic Active B-Cell Receptor Signaling;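 as to activity change, negative = inhibition: plate controls were basal doxycycline-induced cells for no effect and cells given 10 µM MG132 for full effect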
Details: ABC-DLBCL IkBa-CBG/CBR reporter, luminescence ratio (green luciferase fused to IkBa over red control in TMD8 lymphoma cells), 4 h; activity change, negative = inhibition: at 46.1 µM (top of the series) unless noted
How it was run: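 Concentration-response series (up to 46 uM) were applied to TMD8 dual-reporter cells for 4 h at 37C with doxycycline. Green/red ratio, after filter-overlap correction, defined %Activity; red signal alone was normalised to basal cells and zero luminescence.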
Potency is read from the fitted curve at half-maximal effect.

Structure (SMILES)	Potency	activity change, negative = inhibition
CCOc1ccccc1C1CC(=O)Nc2cc3c(cc21)OCO3 (configuration not stated)	inconclusive: 25.1 µM [falling, single point]	–
Cc1nc(-c2ccccc2)sc1C(=O)O	–	inconclusive: 16.2%
S=C(NCCc1ccccn1)Nc1cccc(Cl)c1	–	inconclusive: -12.6%
CCCn1nnnc1COc1ccc(C(N)=O)cc1	–	inactive
CCOc1ccc(NC(=S)N(Cc2ccc(N(C)C)cc2)Cc2ccco2)cc1	–	inconclusive: -2.52%
Cc1noc(C)c1-c1ccc2ncnc(NCc3cccc(-c4ccccc4)c3)c2c1	–	inconclusive: -25.6%
CSc1nnc(NC(=O)CCc2ccccc2)s1	–	inconclusive: -0.895%
COc1ccc(C(=O)Nc2cccc3c2CCCC3)cc1OC	–	inconclusive: 3.34%
O=c1oc2ccccc2c(N2CCC(c3ccccc3)CC2)c1[N+](=O)[O-]	inconclusive: 31.6 µM [falling, single point]	–
c1ccc(-c2nnc(-c3ccccc3)c(-c3c[nH]c4ccccc34)n2)cc1	–	inconclusive: 3%
Cc1cc(N2CCN(C)CC2)nc2ccc(NC(=S)N3CCN(c4cccc(Cl)c4)CC3)cc12	–	inconclusive: 7.2%
CCOc1ccc(NC(=O)CN(C)CC(=O)Nc2cc(Cl)ccc2C#N)cc1OCC	inconclusive: 18.4 µM [falling, single point]	–
COC(=O)[C@]1(C)N[C@H](CN(C)S(=O)(=O)c2ccc(C(C)(C)C)cc2)[C@@H]2C(=O)N(C)C(=O)[C@@H]21	–	inconclusive: -0.453%
CSc1nc(O)c(/C=C2\C=Nc3ccccc32)[nH]1	inconclusive: 25.9 µM [falling, single point]	–
CCN(CC)c1ccc(C(=O)n2cnc3ccccc32)cc1	–	inconclusive: -14.3%
CC(=O)Nc1nnc(-c2ccc3c(c2)CCCC3)o1	inconclusive: 20 µM [falling, partial curve, poor fit]	–
Cc1ccc(NC(=O)c2sc(Cl)nc2-c2ccccc2)cc1	–	inconclusive: -2.81%
Clc1ccccc1-c1nc(-c2ccccc2)n[nH]1	inconclusive: 5.01 µM [falling, partial curve]	–
CC(C)CCOc1ccc(C2CC(=O)N(C)C2=O)cc1 (configuration not stated)	–	inconclusive: 4.81%
O=C(O)c1ccc(COc2c(F)c(F)c(F)c(F)c2F)o1	–	inconclusive: 10.2%
CC1(C)CC(=O)C(/C=N/n2c(C(F)(F)F)nc3ccccc3c2=O)=C(O)C1	inconclusive: 29.1 µM [falling, single point]	–
CCN(C(=O)c1ccc2c(Cl)c3c(nc2c1)CCC3)c1cccc(C)c1	–	inconclusive: 0.538%
Cc1cccc(C(=O)O/N=C/c2c(N3CCOCC3)n(C)c3ccccc23)c1	–	inconclusive: -19.8%
COc1n[nH]c(C(=O)Nc2nc3ccccc3s2)c1[N+](=O)[O-]	inconclusive: 22.4 µM [falling, partial curve]	–
C=CCn1c(SCCN2CCOCC2)nc2c1c(=O)[nH]c(=O)n2C	–	inactive
COc1ccc(-c2ccnc3nc(Sc4ncc(C(F)(F)F)cc4Cl)nn23)cc1	–	inactive

Structure (SMILES)	Potency	activity change, negative = inhibition
CCN1CCC(NC(=O)Nc2ccccc2C(=O)OC)CC1	–	inactive
COc1ccc(-n2cccc2/C=C2\C(=N)N3N=C(C(C)C)SC3=NC2=O)cc1	–	inconclusive: 13%
CC(Sc1nnnn1-c1ccc(Cl)cc1)C(=O)NCC(=O)Nc1ccc(F)c(F)c1F (configuration not stated)	–	inconclusive: 1.98%
O=C(NCCCN1CCCC1=O)Nc1ccccc1F	–	inactive
Cc1cc(CN2CCN(CCC#N)CC2)c(O)c(C2(C)CCCCC2)c1	–	inconclusive: -3.8%
COc1ccccc1-c1nnc(NC(=O)c2ccc(S(=O)(=O)N(C)Cc3ccccc3)cc2)o1	–	inactive
O=C(CSc1nc(=O)[nH]c2c1CCC2)Nc1cc(C(F)(F)F)ccc1Cl	–	inactive
CC(=O)Nc1ccc2nc(NC(=O)COc3ccccc3)sc2c1	–	inconclusive: 19.4%
Cn1cccc1C(=O)NCCc1ccccc1	inconclusive: 17.8 µM [falling, single point]	–
CCOCCOc1nc2c(c(=O)n(C)c(=O)n2C)n1Cc1ccc(C)cc1	–	inactive
O=C(O)c1cc(-c2ccccc2)nc(-c2ccccc2)c1	–	inactive
CC1(C(=O)OCC(=O)Nc2nc(-c3ccc(F)c(F)c3)cs2)CC1(Cl)Cl (configuration not stated)	–	inconclusive: 13.1%
CCCCCn1c(CCC(=O)Oc2ccccc2OC)nc2c1c(=O)[nH]c(=O)n2CCCC	–	inconclusive: -14.1%
CCN(CC)C(=O)c1[nH]cnc1C(=O)NCC(=O)OCc1ccccc1	–	inactive
COC(=O)c1[nH]c2ccc(C)cc2c1NC(=O)Nc1ccc(OC)cc1	–	inconclusive: -19.2%
COc1ccccc1-c1nc(SCC(=O)Nc2ccccc2F)n[nH]1	inconclusive: 12.6 µM [falling, partial curve]	–
CCOc1ccc(-c2noc(-c3cccnc3)n2)cc1OCC	–	inconclusive: 8.82%
COc1ccccc1NC(=O)Cn1c(C)cc(=O)c2cccc(OC)c21	–	inconclusive: -0.0176%
COc1ccc(/C(C)=N/NC(=S)NCc2ccco2)cc1	inconclusive: 18.4 µM [falling, single point]	–
O=C(Nc1nnc(-c2ccccc2)s1)c1cc(S(=O)(=O)N2CCOCC2)c(Cl)cc1Cl	inconclusive: 0.651 µM [rising, partial curve, poor fit]	–
CCc1nnc(NC(=O)CSc2nnc(CNc3cccc(C)c3)n2-c2ccccc2)s1	–	inconclusive: -2.59%
O=C(Cc1ccccc1)Nc1nnc(-c2ccccc2)o1	inconclusive: 35.5 µM [falling, single point]	–
CCN(CC(=O)Nc1ccc(OC)cc1)CC(=O)Nc1ccc(Br)cc1F	–	inactive
CN(C)S(=O)(=O)c1cccc(C(=O)N(Cc2ccc(F)cc2)Cc2ccco2)c1	–	inconclusive: 3.56%
CN(C)c1ccc(P(=O)(COc2ccc([N+](=O)[O-])cc2)c2ccc(N(C)C)cc2)cc1	–	inconclusive: 0.539%
C=CCNC(=O)CN(c1ccc(OC)cc1OC)S(C)(=O)=O	–	inconclusive: 12.6%

Sorted by length of the SMILES (descending): three of the compounds above.
Structure (SMILES)	Potency	activity change, negative = inhibition
CCCCCn1c(CCC(=O)Oc2ccccc2OC)nc2c1c(=O)[nH]c(=O)n2CCCC	–	inconclusive: -14.1%
CN(C)S(=O)(=O)c1cccc(C(=O)N(Cc2ccc(F)cc2)Cc2ccco2)c1	–	inconclusive: 3.56%
CCN(CC(=O)Nc1ccc(OC)cc1)CC(=O)Nc1ccc(Br)cc1F	–	inactive
